Test results published in publication PMC11416316.
Results are given in words; binding and its absence hold for the method and conditions named. Some binding calls cover weakened binding; strength is not graded here.

By UniProt entry, the sequences of proteins in these tests, tags left out. Where a name states a change or a piece, a line headed by the entry shows the natural chain unless it says otherwise.
UniProt P35729: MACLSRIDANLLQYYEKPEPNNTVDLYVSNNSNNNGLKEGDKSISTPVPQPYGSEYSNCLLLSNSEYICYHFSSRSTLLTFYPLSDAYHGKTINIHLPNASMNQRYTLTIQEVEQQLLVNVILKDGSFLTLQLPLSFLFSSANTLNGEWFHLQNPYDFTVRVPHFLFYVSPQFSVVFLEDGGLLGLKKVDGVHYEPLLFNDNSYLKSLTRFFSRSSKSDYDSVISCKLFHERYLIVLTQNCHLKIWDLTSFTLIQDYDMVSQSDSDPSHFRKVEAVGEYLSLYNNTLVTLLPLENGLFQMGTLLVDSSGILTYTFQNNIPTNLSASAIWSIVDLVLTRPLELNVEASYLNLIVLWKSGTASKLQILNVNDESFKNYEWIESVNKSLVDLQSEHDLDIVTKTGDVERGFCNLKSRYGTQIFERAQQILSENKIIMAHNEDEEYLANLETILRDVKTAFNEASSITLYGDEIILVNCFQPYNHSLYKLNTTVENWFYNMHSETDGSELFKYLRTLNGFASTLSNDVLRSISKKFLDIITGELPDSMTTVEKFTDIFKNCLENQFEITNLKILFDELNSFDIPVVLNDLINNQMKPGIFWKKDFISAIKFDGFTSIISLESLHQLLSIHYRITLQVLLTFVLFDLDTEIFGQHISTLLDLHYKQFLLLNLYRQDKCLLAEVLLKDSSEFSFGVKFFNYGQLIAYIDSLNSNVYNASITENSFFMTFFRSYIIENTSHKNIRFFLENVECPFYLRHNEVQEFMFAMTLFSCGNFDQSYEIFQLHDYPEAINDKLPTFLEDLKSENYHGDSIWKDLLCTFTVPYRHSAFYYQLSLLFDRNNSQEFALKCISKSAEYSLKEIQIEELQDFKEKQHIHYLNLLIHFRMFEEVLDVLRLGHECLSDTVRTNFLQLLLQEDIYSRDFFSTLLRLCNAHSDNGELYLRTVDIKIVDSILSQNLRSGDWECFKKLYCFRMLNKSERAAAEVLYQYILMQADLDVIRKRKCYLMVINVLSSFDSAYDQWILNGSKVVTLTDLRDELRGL
UniProt Q9Z0W3: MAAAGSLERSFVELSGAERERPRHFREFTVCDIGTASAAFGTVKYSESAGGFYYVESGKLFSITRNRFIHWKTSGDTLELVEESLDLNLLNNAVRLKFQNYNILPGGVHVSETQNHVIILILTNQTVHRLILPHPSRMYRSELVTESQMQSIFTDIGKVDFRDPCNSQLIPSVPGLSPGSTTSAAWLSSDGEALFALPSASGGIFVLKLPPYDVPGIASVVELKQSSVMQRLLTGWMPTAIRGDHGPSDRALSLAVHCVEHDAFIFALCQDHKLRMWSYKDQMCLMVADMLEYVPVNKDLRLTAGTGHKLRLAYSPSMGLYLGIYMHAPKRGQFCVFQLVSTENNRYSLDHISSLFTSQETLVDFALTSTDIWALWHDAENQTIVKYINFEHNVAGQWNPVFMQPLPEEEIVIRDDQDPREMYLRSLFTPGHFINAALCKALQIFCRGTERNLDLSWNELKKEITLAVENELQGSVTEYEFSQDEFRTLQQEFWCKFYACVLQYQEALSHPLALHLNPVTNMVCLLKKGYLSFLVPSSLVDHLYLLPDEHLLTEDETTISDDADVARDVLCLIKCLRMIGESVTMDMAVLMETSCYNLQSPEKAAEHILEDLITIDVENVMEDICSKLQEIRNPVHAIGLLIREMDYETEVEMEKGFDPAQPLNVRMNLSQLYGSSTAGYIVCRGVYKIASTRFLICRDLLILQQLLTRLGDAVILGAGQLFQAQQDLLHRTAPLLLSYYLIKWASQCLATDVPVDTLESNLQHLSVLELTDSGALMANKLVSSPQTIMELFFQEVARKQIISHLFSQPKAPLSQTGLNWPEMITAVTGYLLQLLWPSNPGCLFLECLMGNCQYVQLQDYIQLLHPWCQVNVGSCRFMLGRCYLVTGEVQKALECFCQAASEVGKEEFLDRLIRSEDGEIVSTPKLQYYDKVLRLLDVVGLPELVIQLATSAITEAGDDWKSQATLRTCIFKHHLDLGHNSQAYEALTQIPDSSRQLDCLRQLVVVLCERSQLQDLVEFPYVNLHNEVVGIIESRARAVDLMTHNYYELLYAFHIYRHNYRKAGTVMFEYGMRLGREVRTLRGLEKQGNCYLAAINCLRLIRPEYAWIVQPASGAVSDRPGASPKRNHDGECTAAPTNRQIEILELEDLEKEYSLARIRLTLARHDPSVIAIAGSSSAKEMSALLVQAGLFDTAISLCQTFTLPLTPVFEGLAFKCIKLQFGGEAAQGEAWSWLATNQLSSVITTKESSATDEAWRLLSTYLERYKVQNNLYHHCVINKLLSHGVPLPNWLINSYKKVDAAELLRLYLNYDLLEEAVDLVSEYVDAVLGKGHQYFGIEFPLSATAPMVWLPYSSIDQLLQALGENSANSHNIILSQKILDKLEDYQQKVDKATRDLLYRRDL
UniProt F6ZDS4: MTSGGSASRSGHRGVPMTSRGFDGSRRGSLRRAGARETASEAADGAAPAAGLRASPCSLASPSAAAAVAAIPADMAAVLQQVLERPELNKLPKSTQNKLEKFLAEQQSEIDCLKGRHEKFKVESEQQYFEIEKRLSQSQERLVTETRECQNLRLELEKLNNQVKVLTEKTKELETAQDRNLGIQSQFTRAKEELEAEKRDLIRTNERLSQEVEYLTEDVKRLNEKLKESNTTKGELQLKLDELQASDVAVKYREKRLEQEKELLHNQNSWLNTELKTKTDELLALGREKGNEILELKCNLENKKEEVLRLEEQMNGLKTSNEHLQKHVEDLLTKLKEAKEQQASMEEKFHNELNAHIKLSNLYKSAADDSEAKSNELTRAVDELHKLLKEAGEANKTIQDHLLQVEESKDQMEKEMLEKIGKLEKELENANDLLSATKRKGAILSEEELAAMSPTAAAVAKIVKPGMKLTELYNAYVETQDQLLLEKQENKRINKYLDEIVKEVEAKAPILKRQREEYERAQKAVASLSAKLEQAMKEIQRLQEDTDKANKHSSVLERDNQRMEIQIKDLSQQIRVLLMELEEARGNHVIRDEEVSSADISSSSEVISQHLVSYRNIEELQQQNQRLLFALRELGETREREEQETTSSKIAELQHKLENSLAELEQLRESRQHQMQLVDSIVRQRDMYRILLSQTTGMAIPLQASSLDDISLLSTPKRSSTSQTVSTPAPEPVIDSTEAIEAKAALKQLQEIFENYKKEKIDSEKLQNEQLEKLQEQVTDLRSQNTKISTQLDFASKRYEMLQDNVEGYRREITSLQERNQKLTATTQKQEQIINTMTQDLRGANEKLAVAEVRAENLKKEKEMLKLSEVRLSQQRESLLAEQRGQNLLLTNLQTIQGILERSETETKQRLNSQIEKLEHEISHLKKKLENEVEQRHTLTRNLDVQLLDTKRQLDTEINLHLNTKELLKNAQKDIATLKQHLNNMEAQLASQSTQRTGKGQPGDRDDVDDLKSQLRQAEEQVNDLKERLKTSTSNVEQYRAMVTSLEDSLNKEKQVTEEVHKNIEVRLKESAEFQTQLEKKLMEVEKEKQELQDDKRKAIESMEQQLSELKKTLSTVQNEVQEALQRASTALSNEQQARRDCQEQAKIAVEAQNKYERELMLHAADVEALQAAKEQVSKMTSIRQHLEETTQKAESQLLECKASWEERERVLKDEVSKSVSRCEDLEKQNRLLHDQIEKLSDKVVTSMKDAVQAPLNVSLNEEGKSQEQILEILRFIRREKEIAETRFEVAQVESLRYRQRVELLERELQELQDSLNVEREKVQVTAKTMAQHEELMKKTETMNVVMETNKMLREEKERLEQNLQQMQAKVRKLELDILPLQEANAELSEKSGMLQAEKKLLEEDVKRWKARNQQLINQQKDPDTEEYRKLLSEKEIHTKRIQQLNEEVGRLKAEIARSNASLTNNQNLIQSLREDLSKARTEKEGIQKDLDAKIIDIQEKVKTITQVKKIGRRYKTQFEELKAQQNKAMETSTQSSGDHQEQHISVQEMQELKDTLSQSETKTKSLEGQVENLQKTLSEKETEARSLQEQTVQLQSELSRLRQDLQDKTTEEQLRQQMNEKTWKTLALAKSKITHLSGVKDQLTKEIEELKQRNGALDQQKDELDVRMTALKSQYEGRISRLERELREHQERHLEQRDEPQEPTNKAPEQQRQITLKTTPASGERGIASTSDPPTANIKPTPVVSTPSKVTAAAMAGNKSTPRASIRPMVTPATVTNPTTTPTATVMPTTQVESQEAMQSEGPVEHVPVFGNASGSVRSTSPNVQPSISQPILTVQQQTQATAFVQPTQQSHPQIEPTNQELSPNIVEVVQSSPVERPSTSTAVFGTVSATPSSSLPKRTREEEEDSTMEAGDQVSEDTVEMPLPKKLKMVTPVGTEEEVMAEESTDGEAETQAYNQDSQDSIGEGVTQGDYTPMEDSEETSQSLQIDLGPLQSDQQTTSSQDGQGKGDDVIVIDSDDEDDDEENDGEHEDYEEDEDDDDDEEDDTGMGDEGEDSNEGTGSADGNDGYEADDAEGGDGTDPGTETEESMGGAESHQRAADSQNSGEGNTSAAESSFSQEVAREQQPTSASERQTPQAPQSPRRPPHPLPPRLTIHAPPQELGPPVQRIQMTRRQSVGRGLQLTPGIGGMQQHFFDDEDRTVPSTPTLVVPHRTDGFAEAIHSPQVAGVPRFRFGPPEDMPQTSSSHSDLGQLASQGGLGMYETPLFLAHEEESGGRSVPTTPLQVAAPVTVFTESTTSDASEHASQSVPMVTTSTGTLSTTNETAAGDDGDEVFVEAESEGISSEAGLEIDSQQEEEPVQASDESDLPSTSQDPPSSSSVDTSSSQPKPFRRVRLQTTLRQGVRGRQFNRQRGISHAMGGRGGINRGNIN
UniProt P39705: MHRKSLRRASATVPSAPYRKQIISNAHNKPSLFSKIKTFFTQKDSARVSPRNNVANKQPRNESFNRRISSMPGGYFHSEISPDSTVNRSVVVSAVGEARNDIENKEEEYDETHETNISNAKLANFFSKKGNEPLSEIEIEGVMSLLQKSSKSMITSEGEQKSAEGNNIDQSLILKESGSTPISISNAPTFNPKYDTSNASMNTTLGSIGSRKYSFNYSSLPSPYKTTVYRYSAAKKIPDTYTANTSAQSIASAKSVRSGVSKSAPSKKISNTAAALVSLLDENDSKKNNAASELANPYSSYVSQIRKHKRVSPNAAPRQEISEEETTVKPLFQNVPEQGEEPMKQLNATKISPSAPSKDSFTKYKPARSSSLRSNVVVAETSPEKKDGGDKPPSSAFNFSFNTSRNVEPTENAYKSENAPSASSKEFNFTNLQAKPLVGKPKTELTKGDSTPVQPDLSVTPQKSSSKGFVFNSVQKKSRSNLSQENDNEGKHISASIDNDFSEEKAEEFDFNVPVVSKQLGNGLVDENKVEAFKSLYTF

Assays:
[1] = target: yNup84 complex of the proximal nuclear ring (heptameric Y-complex) (S. cerevisiae (endogenous in W303)) (UniProt P35729); experiment: cryo-EM structure; in-cell cryo-ET with subtomogram averaging of the yeast NPC with a double nuclear ring, read by integrative modelling (cryo-ET map, DSS cross-links of affinity-purified NPCs, immuno-EM, co-purification data, coiled-coil propensities); coarse-grained model, overall precision 57 Å
[2] = target: mNup107 complex of the proximal nuclear ring (nonameric Y-complex) (mouse (endogenous in NIH3T3)) (UniProt Q9Z0W3); experiment: cryo-EM structure; in-cell cryo-ET with subtomogram averaging of the mouse (NIH3T3) NPC, read by integrative modelling (cryo-ET map and structural equivalence restraints to the yeast model; no cross-links or co-purification data); coarse-grained model, overall precision 42 Å
[3] = target: mTpr (mouse (endogenous in NIH3T3)) (UniProt F6ZDS4); experiment: as above

Row | binding [1] | binding [2] | binding [3] | Molecule
1 | binds |  |  | yNup60 (from UniProt P39705 1-539)
2 |  | binds | binds | mNup153 (protein, UniProt E9Q3G8 1-1462) MASEAGGIGGGGGGGKIRTRRCHQGPVKPYQQGRPQHQGILSRVTESVKNIVPGWLQRYFNKSENACSCSPDADEVPPWPENREDEHAIYADENTNTDDGRITPDPAGSNTEEPSTTSTASNYPDVLTRPSLHRSHLNFSVLESPALHCQPSTSSAFPIGSSGFSLVKEIKDSTSQHDDDNISTTSGFSSRASEKDIAVSKNTSLPPLWSPEAERSHSLSQHTAISSKKPAFNLSAFGTLSTSLGNSSILKTSQLGDSPFYPGKTTYGGAAAAVRQNKVRSTPYQAPVRRQMKAKQLNAQSYGVTSSTARRILQSLEKMSSPLADAKRIPSAVSSPLNSPLDRSGIDNTVFQAKKEKVDSQYPPVQRLMTPKPVSIATNRTVYFKPSLTPSGDLRKTNQRIDKKNSTVDEKSISRQNREQESGFSYPNFSIPAANGLSSGVGGGGGKMRRERTHFVAPKPPENEEVEAPLLPQISLPISSSSLPTFSFSSPVTSASPSPVSSSQPLPNKVQMTSLGSTGSPVFTFSSPIVKSTQAAVLPPASIGFTFSVPLAKTEFSGSNSSSETVLSSSAQDITAVNSSSYKKRSAPCEDPFTPAKILREGSVLDILKTPGFASPKVDSPALQPTTTSSIVYTRPAISTFSSSGIEYGESLKAGSSWQCDTCLLQNKVTDNKCIACQAAKLPLKETAKQTGTGTPSKSDKPASTSGTGFGDKFKPAIGTWDCDTCLVQNKPEAVKCVACETPKPGTGVKRALTLTVASESPVTASSSTTVTTGTLGFGDKFKRPVGSWECPVCCVCNKAEDNRCVSCTSEKPGLVSASSSSPAPVSLSSGGCLGLDKFKKPEGSWDCEVCLVQNKADSAKCIACESAKPGTKSEFKGFGTSSSLNPAPSAFKFGIPSSSSGLSQTLTSTGNFKFGDQGGFKLGTSSDSGSTNTMNTNFKFSKPTGDFKFGVLSDSKPEEVKNDNKNDNFQFGSSSGLTNPASSAPFQFGVSTLGQQEKKEELPKSSPAGFSFGAGVNNPPNAAIDTTATSENKSGFNFGTLDTKSVSVTPFTYKTTEAKKEDAPATKGGFTFGKVGSSSLPSSSMFVLGRTEEKQQEPVTSTSLVFGKKADSEEPKCQPVFSFGNSEQTKDESSKPTFSFSVAKPSGKESEQLAKATFAFGNQTNTTTDQGAAKPVFSFLNSSSSSSSAPATSSSGGIFGSSTSSSNPPVAAFVFGQASNPVSSSAFGNAAESSTSQSLLFPQESEPATTSSTAPAASPFVFGTGASSNSVSSGFTFGATTTSSSSGSSFVFGTGHSAPSASPAFGANQTPTFGQSQGASQPNPPSFGSISSSTALFSAGSQPVPPPIFGTVSSSSQPPVFGQQPSQSAFGSGTANASSVFQFGSSTTNFNFTNNNPSGVFTFGASPSTPAASAQPSGSGVFSFSQSPASFTVGSNGKNMFSSSGTSVSGRKIKTAVRRKK
